# Publication doi:10.1101/201277 (bioRxiv, 2017)
# Sequences of proteins named here, by UniProt entry; tags and fusion partners are left off.
# UniProt P0ACP1: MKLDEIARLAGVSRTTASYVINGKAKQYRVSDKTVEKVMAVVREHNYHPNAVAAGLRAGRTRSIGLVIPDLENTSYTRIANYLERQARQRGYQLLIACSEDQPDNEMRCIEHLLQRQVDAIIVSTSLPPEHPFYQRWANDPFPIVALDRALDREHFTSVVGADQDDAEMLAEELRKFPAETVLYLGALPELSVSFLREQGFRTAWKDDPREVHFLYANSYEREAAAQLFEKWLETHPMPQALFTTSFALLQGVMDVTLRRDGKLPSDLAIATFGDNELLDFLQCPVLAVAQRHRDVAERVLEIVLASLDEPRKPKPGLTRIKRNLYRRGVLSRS
# These are yes or no findings as the source states them, for the method shown. For some assays here: In cells and extracts the contact can be indirect. Some binding calls cover weakened binding; strength is not graded here.
# B1: fructose-1-kinase (FruK), recombinant, separately purified (enzyme, E. coli, UniProt P0AEW9 1-312, looked up)
# chain: MSRRVATITLNPAYDLVGFCPEIERGEVNLVKTTGLHAAGKGINVAKVLKDLGIDVTVGGFLGKDNQDGFQQLFSELGIANRFQVVQGRTRINVKLTEKDGEVTDFNFSGFEVTPADWERFVTDSLSWLGQFDMVCVSGSLPSGVSPEAFTDWMTRLRSQCPCIIFDSSREALVAGLKAAPWLVKPNRRELEIWAGRKLPEMKDVIEAAHALREQGIAHVVISLGAEGALWVNASGEWIAKPPSVDVVSTVGAGDSMVGGLIYGLLMRESSEHTLRLATAVAALAVSQSNVGITDRPQLAAMMARVDLQPFN
# Legend:
# [1] = molecular target: catabolite repressor activator protein (Cra), wild-type (E. coli) (UniProt P0ACP1); assay: co-purification
# [2] = molecular target: catabolite repressor activator protein (Cra), wild-type (E. coli) (UniProt P0ACP1); assay: pull-down
binder,measurement,setting,value
B1,binding,[1],binds
same,binding,[2],binds
